# Results: the supplement of paper PMC6411743
# By UniProt entry, the sequences of proteins in these tests, tags left out. Where a name states a change or a piece, a line headed by the entry shows the natural chain unless it says otherwise.
# UniProt Q9UNX4: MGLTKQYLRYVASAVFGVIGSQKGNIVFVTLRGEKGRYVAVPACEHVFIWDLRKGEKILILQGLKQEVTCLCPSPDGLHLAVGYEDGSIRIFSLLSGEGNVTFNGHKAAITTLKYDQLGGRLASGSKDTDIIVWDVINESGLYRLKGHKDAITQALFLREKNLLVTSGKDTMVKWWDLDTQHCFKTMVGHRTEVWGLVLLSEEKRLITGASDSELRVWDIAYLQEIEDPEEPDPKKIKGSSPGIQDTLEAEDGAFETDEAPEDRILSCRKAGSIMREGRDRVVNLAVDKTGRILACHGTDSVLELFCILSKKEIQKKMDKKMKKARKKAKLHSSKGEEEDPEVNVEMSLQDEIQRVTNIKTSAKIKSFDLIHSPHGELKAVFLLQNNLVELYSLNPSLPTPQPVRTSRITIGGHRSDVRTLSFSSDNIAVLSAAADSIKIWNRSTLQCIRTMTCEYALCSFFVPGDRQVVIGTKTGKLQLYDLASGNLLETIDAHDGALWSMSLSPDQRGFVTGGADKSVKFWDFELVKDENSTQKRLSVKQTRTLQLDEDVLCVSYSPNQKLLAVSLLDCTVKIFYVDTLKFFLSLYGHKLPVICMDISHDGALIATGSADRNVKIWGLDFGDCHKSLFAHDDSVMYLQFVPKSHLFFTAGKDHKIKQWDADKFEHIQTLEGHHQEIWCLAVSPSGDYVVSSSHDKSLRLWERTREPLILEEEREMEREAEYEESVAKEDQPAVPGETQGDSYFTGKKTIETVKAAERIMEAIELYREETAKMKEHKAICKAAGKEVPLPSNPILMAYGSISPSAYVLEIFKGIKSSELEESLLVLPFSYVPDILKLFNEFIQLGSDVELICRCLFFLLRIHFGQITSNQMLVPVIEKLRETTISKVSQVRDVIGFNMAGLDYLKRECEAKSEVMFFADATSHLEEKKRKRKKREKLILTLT
# UniProt Q9Y385: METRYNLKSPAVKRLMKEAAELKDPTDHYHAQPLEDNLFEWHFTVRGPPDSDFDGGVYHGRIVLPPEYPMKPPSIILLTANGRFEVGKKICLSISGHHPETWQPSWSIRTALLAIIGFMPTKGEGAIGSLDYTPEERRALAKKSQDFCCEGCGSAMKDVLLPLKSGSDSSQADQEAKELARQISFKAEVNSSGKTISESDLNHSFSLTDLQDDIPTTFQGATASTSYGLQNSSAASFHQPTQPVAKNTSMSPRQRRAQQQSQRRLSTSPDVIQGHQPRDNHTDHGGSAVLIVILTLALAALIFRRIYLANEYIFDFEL
# UniProt Q9Y248: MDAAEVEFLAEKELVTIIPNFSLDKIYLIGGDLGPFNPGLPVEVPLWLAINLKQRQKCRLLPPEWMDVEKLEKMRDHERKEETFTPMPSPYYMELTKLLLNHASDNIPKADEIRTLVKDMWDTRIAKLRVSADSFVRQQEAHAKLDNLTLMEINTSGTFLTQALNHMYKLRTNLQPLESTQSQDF
# UniProt Q9UQR1: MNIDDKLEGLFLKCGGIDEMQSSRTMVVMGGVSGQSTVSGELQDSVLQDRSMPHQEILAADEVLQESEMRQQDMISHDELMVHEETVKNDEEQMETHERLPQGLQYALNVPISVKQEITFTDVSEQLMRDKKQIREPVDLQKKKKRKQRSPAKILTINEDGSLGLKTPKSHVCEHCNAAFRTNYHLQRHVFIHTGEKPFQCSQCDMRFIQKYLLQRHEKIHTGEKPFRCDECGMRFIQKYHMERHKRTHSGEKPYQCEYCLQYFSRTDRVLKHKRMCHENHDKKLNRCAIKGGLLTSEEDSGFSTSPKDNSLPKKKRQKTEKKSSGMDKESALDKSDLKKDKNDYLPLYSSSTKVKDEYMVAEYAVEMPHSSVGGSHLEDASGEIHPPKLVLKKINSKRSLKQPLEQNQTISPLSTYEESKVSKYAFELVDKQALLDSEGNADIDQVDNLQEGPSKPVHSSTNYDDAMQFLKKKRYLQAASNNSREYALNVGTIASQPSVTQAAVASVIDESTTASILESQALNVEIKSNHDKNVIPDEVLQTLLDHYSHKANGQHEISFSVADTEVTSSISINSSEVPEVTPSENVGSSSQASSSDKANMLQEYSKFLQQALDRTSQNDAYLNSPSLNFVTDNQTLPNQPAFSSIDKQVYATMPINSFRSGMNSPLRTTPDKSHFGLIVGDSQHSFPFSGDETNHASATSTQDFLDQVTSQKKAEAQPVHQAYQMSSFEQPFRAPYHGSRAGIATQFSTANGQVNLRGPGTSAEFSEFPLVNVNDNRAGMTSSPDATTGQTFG
# UniProt Q9Y2I8: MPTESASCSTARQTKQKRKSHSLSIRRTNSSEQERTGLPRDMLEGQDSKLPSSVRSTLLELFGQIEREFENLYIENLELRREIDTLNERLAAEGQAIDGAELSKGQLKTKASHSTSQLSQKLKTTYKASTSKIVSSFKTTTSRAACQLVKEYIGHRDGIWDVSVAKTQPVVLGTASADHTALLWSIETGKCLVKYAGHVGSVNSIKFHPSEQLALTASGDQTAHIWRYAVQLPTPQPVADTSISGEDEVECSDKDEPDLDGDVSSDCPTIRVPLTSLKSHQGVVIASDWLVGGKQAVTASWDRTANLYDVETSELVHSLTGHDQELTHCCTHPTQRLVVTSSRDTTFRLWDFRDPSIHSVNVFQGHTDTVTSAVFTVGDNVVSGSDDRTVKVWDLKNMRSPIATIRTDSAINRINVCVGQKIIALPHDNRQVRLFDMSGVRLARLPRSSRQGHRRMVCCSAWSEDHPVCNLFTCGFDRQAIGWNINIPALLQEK
# UniProt Q9Y6K9, whole entry: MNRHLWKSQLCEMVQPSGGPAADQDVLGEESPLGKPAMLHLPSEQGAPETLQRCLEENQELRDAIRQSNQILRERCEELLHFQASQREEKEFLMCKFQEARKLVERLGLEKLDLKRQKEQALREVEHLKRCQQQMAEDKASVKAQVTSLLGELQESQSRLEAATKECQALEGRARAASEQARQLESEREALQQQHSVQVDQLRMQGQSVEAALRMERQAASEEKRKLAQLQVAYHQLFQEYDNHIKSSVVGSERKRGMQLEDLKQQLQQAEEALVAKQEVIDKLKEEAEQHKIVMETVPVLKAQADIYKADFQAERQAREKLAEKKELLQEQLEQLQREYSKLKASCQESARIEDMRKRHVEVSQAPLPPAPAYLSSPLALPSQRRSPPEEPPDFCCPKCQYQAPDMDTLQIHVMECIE
# UniProt Q9UNF1: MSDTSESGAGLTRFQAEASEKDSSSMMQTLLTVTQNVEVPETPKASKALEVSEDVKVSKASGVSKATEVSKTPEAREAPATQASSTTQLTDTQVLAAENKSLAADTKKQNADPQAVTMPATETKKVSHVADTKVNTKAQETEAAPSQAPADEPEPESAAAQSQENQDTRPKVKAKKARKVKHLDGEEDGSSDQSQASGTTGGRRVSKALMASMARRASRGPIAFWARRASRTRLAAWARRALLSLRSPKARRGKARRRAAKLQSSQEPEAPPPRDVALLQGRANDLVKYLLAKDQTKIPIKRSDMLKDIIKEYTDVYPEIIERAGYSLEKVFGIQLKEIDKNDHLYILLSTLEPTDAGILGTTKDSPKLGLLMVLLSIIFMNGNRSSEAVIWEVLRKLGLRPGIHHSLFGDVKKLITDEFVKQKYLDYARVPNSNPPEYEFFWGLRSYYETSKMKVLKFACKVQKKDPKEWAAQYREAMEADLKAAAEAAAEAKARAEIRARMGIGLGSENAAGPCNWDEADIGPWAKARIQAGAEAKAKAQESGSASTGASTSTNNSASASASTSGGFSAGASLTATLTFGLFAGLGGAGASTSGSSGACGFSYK
# UniProt Q9UNM6: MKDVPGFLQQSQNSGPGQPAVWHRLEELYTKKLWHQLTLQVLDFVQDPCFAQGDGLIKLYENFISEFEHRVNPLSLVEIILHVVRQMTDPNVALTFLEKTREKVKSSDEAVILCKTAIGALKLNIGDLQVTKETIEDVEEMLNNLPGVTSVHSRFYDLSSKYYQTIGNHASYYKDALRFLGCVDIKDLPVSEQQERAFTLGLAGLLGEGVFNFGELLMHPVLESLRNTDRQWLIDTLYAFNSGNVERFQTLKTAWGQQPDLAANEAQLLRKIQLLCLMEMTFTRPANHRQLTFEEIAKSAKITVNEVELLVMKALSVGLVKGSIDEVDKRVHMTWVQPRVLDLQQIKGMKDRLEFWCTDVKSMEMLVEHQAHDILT
# UniProt Q9UNK0: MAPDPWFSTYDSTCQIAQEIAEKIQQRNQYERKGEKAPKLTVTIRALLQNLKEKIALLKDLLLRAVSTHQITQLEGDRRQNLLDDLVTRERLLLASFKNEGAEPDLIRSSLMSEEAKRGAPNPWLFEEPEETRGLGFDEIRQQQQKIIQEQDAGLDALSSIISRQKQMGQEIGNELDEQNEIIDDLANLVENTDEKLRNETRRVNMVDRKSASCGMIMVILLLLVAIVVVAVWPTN
# UniProt Q9Y570: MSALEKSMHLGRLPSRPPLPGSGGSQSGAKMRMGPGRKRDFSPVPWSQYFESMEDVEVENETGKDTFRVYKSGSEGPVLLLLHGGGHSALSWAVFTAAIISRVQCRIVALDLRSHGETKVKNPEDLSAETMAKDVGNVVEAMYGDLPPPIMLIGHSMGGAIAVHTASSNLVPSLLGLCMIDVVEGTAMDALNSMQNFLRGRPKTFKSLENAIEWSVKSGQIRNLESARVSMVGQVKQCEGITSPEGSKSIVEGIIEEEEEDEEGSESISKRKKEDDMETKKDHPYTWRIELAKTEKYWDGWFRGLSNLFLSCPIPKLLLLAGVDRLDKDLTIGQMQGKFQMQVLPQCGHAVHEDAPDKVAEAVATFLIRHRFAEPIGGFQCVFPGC
# UniProt Q9Y5P6: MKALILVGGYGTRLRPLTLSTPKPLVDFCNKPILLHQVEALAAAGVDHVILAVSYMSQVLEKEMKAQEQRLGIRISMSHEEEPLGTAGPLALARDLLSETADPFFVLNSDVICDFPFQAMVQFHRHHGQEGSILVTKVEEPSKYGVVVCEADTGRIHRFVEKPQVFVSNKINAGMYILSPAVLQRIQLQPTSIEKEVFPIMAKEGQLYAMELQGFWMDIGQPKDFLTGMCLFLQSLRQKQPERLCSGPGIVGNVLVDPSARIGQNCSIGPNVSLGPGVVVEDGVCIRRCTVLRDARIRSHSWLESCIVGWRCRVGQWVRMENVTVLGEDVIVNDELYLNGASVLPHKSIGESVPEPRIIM
# UniProt Q9Y5A9: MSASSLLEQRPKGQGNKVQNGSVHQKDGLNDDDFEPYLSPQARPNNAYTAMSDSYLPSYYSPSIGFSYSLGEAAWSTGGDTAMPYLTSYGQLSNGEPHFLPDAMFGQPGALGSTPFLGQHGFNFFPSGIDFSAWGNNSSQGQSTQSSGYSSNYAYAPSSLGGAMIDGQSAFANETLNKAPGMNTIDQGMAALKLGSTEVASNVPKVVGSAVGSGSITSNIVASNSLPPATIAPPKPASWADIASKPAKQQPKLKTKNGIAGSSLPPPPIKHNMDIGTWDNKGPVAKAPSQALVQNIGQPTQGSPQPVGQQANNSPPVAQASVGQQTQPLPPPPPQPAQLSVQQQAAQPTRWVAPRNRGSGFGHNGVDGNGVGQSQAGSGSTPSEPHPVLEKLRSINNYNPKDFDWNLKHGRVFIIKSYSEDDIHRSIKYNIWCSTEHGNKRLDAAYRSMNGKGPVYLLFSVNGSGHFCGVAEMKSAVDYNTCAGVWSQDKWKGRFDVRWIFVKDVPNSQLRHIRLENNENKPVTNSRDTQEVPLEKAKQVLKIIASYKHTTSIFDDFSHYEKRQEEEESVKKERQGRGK
# UniProt Q9Y3E2: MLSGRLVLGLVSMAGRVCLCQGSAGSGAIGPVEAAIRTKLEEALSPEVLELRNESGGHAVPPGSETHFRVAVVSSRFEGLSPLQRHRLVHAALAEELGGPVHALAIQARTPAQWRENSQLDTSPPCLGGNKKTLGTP
# UniProt Q03519, whole entry: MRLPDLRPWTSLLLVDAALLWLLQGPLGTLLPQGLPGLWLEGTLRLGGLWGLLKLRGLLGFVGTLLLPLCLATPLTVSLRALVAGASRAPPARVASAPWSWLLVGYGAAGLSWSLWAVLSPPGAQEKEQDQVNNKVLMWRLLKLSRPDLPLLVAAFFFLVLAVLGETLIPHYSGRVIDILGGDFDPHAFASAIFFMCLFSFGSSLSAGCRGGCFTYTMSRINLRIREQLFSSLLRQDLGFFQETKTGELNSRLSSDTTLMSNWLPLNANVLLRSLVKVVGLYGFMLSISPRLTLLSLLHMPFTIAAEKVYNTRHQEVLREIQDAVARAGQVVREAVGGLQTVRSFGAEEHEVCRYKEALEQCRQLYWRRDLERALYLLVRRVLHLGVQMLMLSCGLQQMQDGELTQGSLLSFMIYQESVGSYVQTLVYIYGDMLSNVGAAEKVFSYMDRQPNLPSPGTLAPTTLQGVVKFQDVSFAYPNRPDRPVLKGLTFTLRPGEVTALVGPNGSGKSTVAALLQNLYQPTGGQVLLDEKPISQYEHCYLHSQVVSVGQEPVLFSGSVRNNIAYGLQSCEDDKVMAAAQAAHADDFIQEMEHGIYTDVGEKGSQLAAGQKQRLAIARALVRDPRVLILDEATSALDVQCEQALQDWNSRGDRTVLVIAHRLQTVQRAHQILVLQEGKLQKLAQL
# ± gives the standard deviation of the averaged measurements. The list shows a part of the results.
# Compound: Nc1nc2c(ncn2[C@@H]2O[C@H](COP(=O)(O)OP(=O)(O)OP(=O)(O)O)[C@@H](O)[C@H]2O)c(=O)[nH]1 [guanosine triphosphate]
# Assay: NP40-soluble protein abundance relative to vehicle (solubility fold change) (ratio); higher = more soluble protein in presence of GTP
# Method in brief: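 In three independent experiments, Jurkat crude lysate made by Dounce homogenisation was treated for 10 min at room temperature and then 3 min at 37 °C with eight concentrations ranging from 0.1 to 10 mM. It was then solubilised with 0.8% NP40 plus benzonase for 60 min at 4 °C and ultracentrifuged. The supernatant was TMT-labelled for LC-MS/MS, and each value is the fold change against the detergent-processed vehicle for the same replicate, using vsn-normalised intensities.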
Target,NP40-soluble protein abundance (concentration: 0.1mM),NP40-soluble protein abundance (concentration: 0.5mM),NP40-soluble protein abundance (concentration: 1mM),NP40-soluble protein abundance (concentration: 2mM),NP40-soluble protein abundance (concentration: 4mM),NP40-soluble protein abundance (concentration: 6mM),NP40-soluble protein abundance (concentration: 8mM),NP40-soluble protein abundance (concentration: 10mM)
NOL7 (UniProt Q9UMY1),0.935 ± 0.059,0.887 ± 0.052,0.988 ± 0.058,0.952 ± 0.095,0.998 ± 0.096,0.998 ± 0.11,1.04 ± 0.079,1.04 ± 0.08
CLIC4 (UniProt Q9Y696),1 ± 0.088,0.929 ± 0.063,0.966 ± 0.1,0.88 ± 0.1,0.976 ± 0.13,0.909 ± 0.1,0.973 ± 0.12,0.866 ± 0.08
UniProt Q9Y2X9 and related entries,0.951 ± 0.12,0.933 ± 0.056,1.03 ± 0.071,1.05 ± 0.12,1.08 ± 0.088,1.02 ± 0.1,1.15 ± 0.13,1.08 ± 0.1
R4GN35 and related entries (UniProt Q5VZ89),1.01 ± 0.033,0.998 ± 0.044,1.02 ± 0.015,0.995 ± 0.01,0.984 ± 0.025,0.9756 ± 0.006,1.04 ± 0.047,0.998 ± 0.04
UniProt Q9Y3D9 and related entries,1.01 ± 0.17,1.01 ± 0.19,1.61 ± 0.35,1.69 ± 0.093,1.771 ± 0.00083,1.61 ± 0.061,1.49 ± 0.28,1.73 ± 0.19
WDR3 (UniProt Q9UNX4),1.12 ± 0.08,1.15 ± 0.098,1.13 ± 0.061,1.42 ± 0.13,1.81 ± 0.16,1.98 ± 0.2,2.04 ± 0.12,1.974 ± 0.012
UniProt Q9Y678,1.04 ± 0.013,1.06 ± 0.025,1.03 ± 0.023,1.05 ± 0.026,1.06 ± 0.038,1.02 ± 0.04,1.06 ± 0.048,1.01 ± 0.049
UniProt Q9Y4D1 and related entries,0.96 ± 0.013,1.06 ± 0.03,1.02 ± 0.011,1.034 ± 0.0039,1.01 ± 0.027,1.03 ± 0.036,1.03 ± 0.15,0.999 ± 0.12
ARFGEF2 (UniProt Q9Y6D5),1.02 ± 0.015,1.04 ± 0.042,1.06 ± 0.025,1.09 ± 0.037,1.06 ± 0.061,1.06 ± 0.07,1.08 ± 0.091,1.06 ± 0.059
UBE2J1 (UniProt Q9Y385),0.923 ± 0.015,0.896 ± 0.022,0.936 ± 0.056,0.908 ± 0.087,0.91 ± 0.11,0.9 ± 0.13,0.883 ± 0.019,0.883 ± 0.092
GINS2 (UniProt Q9Y248),0.945 ± 0.05,0.919 ± 0.042,0.998 ± 0.027,0.974 ± 0.094,0.992 ± 0.046,0.96 ± 0.064,0.946 ± 0.042,1.01 ± 0.015
MAD1L1 (UniProt Q9Y6D9),1.01 ± 0.065,0.983 ± 0.068,0.997 ± 0.098,0.963 ± 0.072,0.953 ± 0.082,0.948 ± 0.079,0.953 ± 0.056,0.941 ± 0.064
KMT2B (UniProt Q9UMN6),0.989 ± 0.064,1.07 ± 0.042,1.08 ± 0.059,1.1 ± 0.021,1.06 ± 0.023,1.09 ± 0.025,1.11 ± 0.11,1.08 ± 0.11
TACC3 (UniProt Q9Y6A5),0.897 ± 0.018,0.905 ± 0.056,0.935 ± 0.042,0.913 ± 0.081,0.887 ± 0.053,0.902 ± 0.077,0.905 ± 0.052,0.953 ± 0.053
ZNF148 (UniProt Q9UQR1),0.942 ± 0.011,0.945 ± 0.043,0.934 ± 0.029,0.919 ± 0.037,0.9092 ± 0.0061,0.905 ± 0.026,0.967 ± 0.021,0.944 ± 0.013
UniProt Q9Y2I8 and related entries,1.07 ± 0.088,1.06 ± 0.12,1.02 ± 0.055,1.08 ± 0.12,1.06 ± 0.14,1.03 ± 0.085,1.01 ± 0.091,0.999 ± 0.13

# Pulled one by one from above, 2 records:
Target,NP40-soluble protein abundance (concentration: 0.1mM),NP40-soluble protein abundance (concentration: 0.5mM),NP40-soluble protein abundance (concentration: 1mM),NP40-soluble protein abundance (concentration: 2mM),NP40-soluble protein abundance (concentration: 4mM),NP40-soluble protein abundance (concentration: 6mM),NP40-soluble protein abundance (concentration: 8mM),NP40-soluble protein abundance (concentration: 10mM)
UniProt Q9Y2I8 and related entries,1.07 ± 0.088,1.06 ± 0.12,1.02 ± 0.055,1.08 ± 0.12,1.06 ± 0.14,1.03 ± 0.085,1.01 ± 0.091,0.999 ± 0.13
UniProt Q9Y3D9 and related entries,1.01 ± 0.17,1.01 ± 0.19,1.61 ± 0.35,1.69 ± 0.093,1.771 ± 0.00083,1.61 ± 0.061,1.49 ± 0.28,1.73 ± 0.19

# Continued:

Target,NP40-soluble protein abundance (concentration: 0.1mM),NP40-soluble protein abundance (concentration: 0.5mM),NP40-soluble protein abundance (concentration: 1mM),NP40-soluble protein abundance (concentration: 2mM),NP40-soluble protein abundance (concentration: 4mM),NP40-soluble protein abundance (concentration: 6mM),NP40-soluble protein abundance (concentration: 8mM),NP40-soluble protein abundance (concentration: 10mM)
UniProt Q9Y6K9 and related entries,0.9639 ± 0.0018,0.949 ± 0.027,1.01 ± 0.043,0.984 ± 0.017,0.982 ± 0.03,0.999 ± 0.038,1.05 ± 0.026,1.06 ± 0.045
MAGED2 (UniProt Q9UNF1),1 ± 0.039,0.993 ± 0.021,1 ± 0.025,0.978 ± 0.037,0.987 ± 0.028,0.985 ± 0.026,1.03 ± 0.026,0.982 ± 0.017
PSMD13 (UniProt Q9UNM6),1.02 ± 0.061,1.02 ± 0.1,0.999 ± 0.11,1.04 ± 0.17,1.04 ± 0.11,1.04 ± 0.17,0.98 ± 0.1,0.957 ± 0.14
TLN2 (UniProt Q9Y4G6),0.976 ± 0.12,0.966 ± 0.091,1.05 ± 0.17,0.978 ± 0.099,0.913 ± 0.1,0.973 ± 0.075,0.925 ± 0.087,1.02 ± 0.19
NUDC (UniProt Q9Y266),0.924 ± 0.044,0.938 ± 0.06,0.931 ± 0.058,0.88 ± 0.077,0.852 ± 0.063,0.893 ± 0.076,0.885 ± 0.056,0.872 ± 0.069
CHMP3 (UniProt Q9Y3E7),1.05 ± 0.09,0.991 ± 0.069,1.09 ± 0.085,1.18 ± 0.063,1.15 ± 0.084,1.09 ± 0.16,1.03 ± 0.17,1.17 ± 0.14
UniProt Q9Y5P4 and related entries,0.996 ± 0.051,1.01 ± 0.039,0.948 ± 0.045,0.946 ± 0.037,0.941 ± 0.048,0.92 ± 0.033,0.941 ± 0.039,0.928 ± 0.022
STX8 (UniProt Q9UNK0),0.99 ± 0.041,0.927 ± 0.044,1.01 ± 0.037,1.04 ± 0.031,1.08 ± 0.051,1.06 ± 0.013,1 ± 0.11,1.07 ± 0.071
ICE1 (UniProt Q9Y2F5),1.09 ± 0.042,1.13 ± 0.067,1.14 ± 0.021,1.2 ± 0.059,1.31 ± 0.091,1.35 ± 0.028,1.4 ± 0.014,1.38 ± 0.054
UniProt Q9Y570 and related entries,0.968 ± 0.046,0.973 ± 0.072,0.936 ± 0.063,0.922 ± 0.056,0.914 ± 0.075,0.901 ± 0.064,0.895 ± 0.074,0.886 ± 0.091
RUVBL1 (UniProt Q9Y265),1.04 ± 0.067,1.12 ± 0.11,1.09 ± 0.12,1.14 ± 0.16,1.18 ± 0.17,1.21 ± 0.19,1.17 ± 0.19,1.14 ± 0.15
UniProt Q9Y5P6 and related entries,0.995 ± 0.015,1 ± 0.015,0.9147 ± 0.008,0.916 ± 0.051,0.914 ± 0.018,0.907 ± 0.01,0.883 ± 0.013,0.874 ± 0.063
YTHDF2 (UniProt Q9Y5A9),0.988 ± 0.042,0.983 ± 0.047,0.98 ± 0.07,0.931 ± 0.049,0.958 ± 0.064,0.95 ± 0.066,0.98 ± 0.07,0.93 ± 0.07
NOC2L (UniProt Q9Y3T9),1.05 ± 0.014,1.04 ± 0.067,0.995 ± 0.022,1.03 ± 0.11,1.11 ± 0.041,1.17 ± 0.041,1.22 ± 0.061,1.32 ± 0.11
BOLA1 (UniProt Q9Y3E2),0.909 ± 0.069,0.941 ± 0.075,0.943 ± 0.06,0.943 ± 0.028,0.908 ± 0.073,0.933 ± 0.059,0.903 ± 0.038,1.04 ± 0.055
X5CMH5 (UniProt Q03519),1.09 ± 0.036,1.08 ± 0.054,0.978 ± 0.028,1.01 ± 0.085,0.976 ± 0.063,0.951 ± 0.051,0.934 ± 0.015,0.918 ± 0.065
